# No constants are given. Whether binding was seen depends on the method and setting. Some results given as binding are weak or reduced against the parent protein; the word gives no strength.
# T1: CD23蛋白 (CD23 protein, low-affinity IgE receptor, as present in tissue samples) (UniProt P06734)
# T1 sequence (looked up): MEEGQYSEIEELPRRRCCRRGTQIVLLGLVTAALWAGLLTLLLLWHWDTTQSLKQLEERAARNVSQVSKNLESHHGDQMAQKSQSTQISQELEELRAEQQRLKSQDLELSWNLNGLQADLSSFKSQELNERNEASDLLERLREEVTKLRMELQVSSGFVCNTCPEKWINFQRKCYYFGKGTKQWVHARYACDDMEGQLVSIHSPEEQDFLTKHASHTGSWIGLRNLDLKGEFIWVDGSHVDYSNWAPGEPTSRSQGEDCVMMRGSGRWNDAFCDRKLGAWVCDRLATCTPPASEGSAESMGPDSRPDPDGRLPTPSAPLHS
# Tests used:
# [1] = target: T1, CD23蛋白 (CD23 protein, low-affinity IgE receptor, as present in tissue samples); experiment: immunohistochemistry on tonsil tissue sections, primary antibody 1 μg/mL
# [2] = target: T1, CD23蛋白 (CD23 protein, low-affinity IgE receptor, as present in tissue samples); experiment: immunohistochemistry on colon cancer tissue sections, primary antibody 1 μg/mL
# [3] = target: T1, CD23蛋白 (CD23 protein, low-affinity IgE receptor, as present in tissue samples); experiment: Western blot on tonsil tissue lysate
Binder,binding [1],binding [2],binding [3]
"365A2D1抗CD23单克隆抗体 (anti-CD23 monoclonal antibody secreted by mouse hybridoma cell line 365A2D1) (antibody, V domains shown) VH: EVQLQESGGGLVQPKGSLKLSCAASGYTFNTYAMHWVRQAPGKGLEWVARIRSKSNNYEPYYADSVKDRFTISRDDSQSILYLQMNNLKTEDTAMYYCVREYYDAMDYWGQGTSVTVSS VL: EIVMTQAAPSVSVTPGESVSISCRSSQSLLHSNGNTYLYWFLQRPGQSPHLLISRVSNLASGVPDRFSGSGSGTAFTLRISRVEAEDVGVYYCMQGLEFPWTFGGGTKLEIK",binds,binds,–
"recombinant anti-CD23 monoclonal antibody (365A2D1 VH/VL on mouse IgG1 and kappa constant regions, expressed in Expi-293F cells, Example 7) (antibody, V domains shown, not shown: a dimerising Fc or GST) VH: EVQLQESGGGLVQPKGSLKLSCAASGYTFNTYAMHWVRQAPGKGLEWVARIRSKSNNYEPYYADSVKDRFTISRDDSQSILYLQMNNLKTEDTAMYYCVREYYDAMDYWGQGTSVTVSS VL: EIVMTQAAPSVSVTPGESVSISCRSSQSLLHSNGNTYLYWFLQRPGQSPHLLISRVSNLASGVPDRFSGSGSGTAFTLRISRVEAEDVGVYYCMQGLEFPWTFGGGTKLEIKR",–,–,binds

# — patent CN112646036A
